In ChEMBL document CHEMBL4316593 (Eur J Med Chem, 2019):
This continues a long series; more values of the same kind are listed elsewhere.

What was measured:
Type in all cases: cell-based
Settings in all cases: U-87MG ATCC
[1] = Inhibition of RTK/PI3K/AKT/mTOR signaling in human U87 cells assessed as up regulation of La ribonucleoprotein domain family member 1 gene expression at cytotoxic IC50 measured after 48 hrs relative to control
[2] = Inhibition of RTK/PI3K/AKT/mTOR signaling in human U87 cells assessed as up regulation of NUS1 dehydrodolichyl diphosphate synthase subunit gene expression at cytotoxic IC50 measured after 48 hrs relative to control
[3] = Inhibition of RTK/PI3K/AKT/mTOR signaling in human U87 cells assessed as down regulation of STRIP2 gene expression at cytotoxic IC50 measured after 48 hrs relative to control
[4] = Inhibition of RTK/PI3K/AKT/mTOR signaling in human U87 cells assessed as up regulation of tRNA splicing endonuclease subunit 34 gene expression at cytotoxic IC50 measured after 48 hrs relative to control
[5] = Inhibition of RTK/PI3K/AKT/mTOR signaling in human U87 cells assessed as up regulation of regulatory factor X5 gene expression at cytotoxic IC50 measured after 48 hrs relative to control
[6] = Inhibition of RTK/PI3K/AKT/mTOR signaling in human U87 cells assessed as up regulation of TATA-box binding protein associated factor 4b gene expression at cytotoxic IC50 measured after 48 hrs relative to control
[7] = Inhibition of RTK/PI3K/AKT/mTOR signaling in human U87 cells assessed as down regulation of RALGAPA1 gene expression at cytotoxic IC50 measured after 48 hrs relative to control
[8] = Inhibition of RTK/PI3K/AKT/mTOR signaling in human U87 cells assessed as up regulation of bone morphogenetic protein 4 gene expression at cytotoxic IC50 measured after 48 hrs relative to control
[9] = Inhibition of RTK/PI3K/AKT/mTOR signaling in human U87 cells assessed as up regulation of tensin 3 gene expression at cytotoxic IC50 measured after 48 hrs relative to control
[10] = Inhibition of RTK/PI3K/AKT/mTOR signaling in human U87 cells assessed as up regulation of 5'-nucleotidase ecto gene expression at cytotoxic IC50 measured after 48 hrs relative to control
[11] = Inhibition of RTK/PI3K/AKT/mTOR signaling in human U87 cells assessed as down regulation of MCM5 gene expression at cytotoxic IC50 measured after 48 hrs relative to control
[12] = Inhibition of RTK/PI3K/AKT/mTOR signaling in human U87 cells assessed as down regulation of ATP6V1A gene expression at cytotoxic IC50 measured after 48 hrs relative to control
[13] = Inhibition of RTK/PI3K/AKT/mTOR signaling in human U87 cells assessed as up regulation of solute carrier family 27 member 1 gene expression at cytotoxic IC50 measured after 48 hrs relative to control
[14] = Inhibition of RTK/PI3K/AKT/mTOR signaling in human U87 cells assessed as down regulation of AFF1 gene expression at cytotoxic IC50 measured after 48 hrs relative to control
[15] = Inhibition of RTK/PI3K/AKT/mTOR signaling in human U87 cells assessed as down regulation of RUBCN gene expression at cytotoxic IC50 measured after 48 hrs relative to control
[16] = Inhibition of RTK/PI3K/AKT/mTOR signaling in human U87 cells assessed as down regulation of PGM2 gene expression at cytotoxic IC50 measured after 48 hrs relative to control
[17] = Inhibition of RTK/PI3K/AKT/mTOR signaling in human U87 cells assessed as down regulation of WNT9A gene expression at cytotoxic IC50 measured after 48 hrs relative to control
[18] = Inhibition of RTK/PI3K/AKT/mTOR signaling in human U87 cells assessed as down regulation of AMBRA1 gene expression at cytotoxic IC50 measured after 48 hrs relative to control
[19] = Inhibition of RTK/PI3K/AKT/mTOR signaling in human U87 cells assessed as down regulation of KLHL28 gene expression at cytotoxic IC50 measured after 48 hrs relative to control
[20] = Inhibition of RTK/PI3K/AKT/mTOR signaling in human U87 cells assessed as down regulation of TRIM62 gene expression at cytotoxic IC50 measured after 48 hrs relative to control
[21] = Inhibition of RTK/PI3K/AKT/mTOR signaling in human U87 cells assessed as up regulation of BCL2 interacting killer gene expression at cytotoxic IC50 measured after 48 hrs relative to control
[22] = Inhibition of RTK/PI3K/AKT/mTOR signaling in human U87 cells assessed as up regulation of FGFR4 gene expression at cytotoxic IC50 measured after 48 hrs relative to control
[23] = Inhibition of RTK/PI3K/AKT/mTOR signaling in human U87 cells assessed as down regulation of CCNE1 gene expression at cytotoxic IC50 measured after 48 hrs relative to control
[24] = Inhibition of RTK/PI3K/AKT/mTOR signaling in human U87 cells assessed as down regulation of GINS1 gene expression at cytotoxic IC50 measured after 48 hrs relative to control
[25] = Inhibition of RTK/PI3K/AKT/mTOR signaling in human U87 cells assessed as down regulation of ZNF273 gene expression at cytotoxic IC50 measured after 48 hrs relative to control
[26] = Inhibition of RTK/PI3K/AKT/mTOR signaling in human U87 cells assessed as up regulation of F-box protein 25 gene expression at cytotoxic IC50 measured after 48 hrs relative to control
[27] = Inhibition of RTK/PI3K/AKT/mTOR signaling in human U87 cells assessed as down regulation of VTA1 gene expression at cytotoxic IC50 measured after 48 hrs relative to control
[28] = Inhibition of RTK/PI3K/AKT/mTOR signaling in human U87 cells assessed as up regulation of Ras association domain family member 5 gene expression at cytotoxic IC50 measured after 48 hrs relative to control
[29] = Inhibition of RTK/PI3K/AKT/mTOR signaling in human U87 cells assessed as up regulation of thymosin beta 10 gene expression at cytotoxic IC50 measured after 48 hrs relative to control
[30] = Inhibition of RTK/PI3K/AKT/mTOR signaling in human U87 cells assessed as up regulation of heparin binding growth factor gene expression at cytotoxic IC50 measured after 48 hrs relative to control
[31] = Inhibition of RTK/PI3K/AKT/mTOR signaling in human U87 cells assessed as up regulation of MLEC gene expression at cytotoxic IC50 measured after 48 hrs relative to control
[32] = Inhibition of RTK/PI3K/AKT/mTOR signaling in human U87 cells assessed as down regulation of RPAP3 gene expression at cytotoxic IC50 measured after 48 hrs relative to control

Compound: CC(=O)C(=NNc1ccccc1C#N)C(C)=O
- log2FC [1]: 0.858
- log2FC [2]: 0.792
- log2FC [3]: -1.78
- log2FC [4]: 0.654
- log2FC [5]: 1.06
- log2FC [6]: 0.949
- log2FC [7]: -1.21
- log2FC [8]: 1.55
- log2FC [9]: 0.796
- log2FC [10]: 0.949
- log2FC [11]: -1.58
- log2FC [12]: -0.573
- log2FC [13]: 1.41
- log2FC [14]: -0.944
- log2FC [15]: -1.59
- log2FC [16]: -0.768
- log2FC [17]: -1.49
- log2FC [18]: -1.13
- log2FC [19]: -1.07
- log2FC [20]: -1.1
- log2FC [21]: 1.18
- log2FC [22]: 0.617
- log2FC [23]: -0.876
- log2FC [24]: -1.2
- log2FC [25]: -1.99
- log2FC [26]: 0.773
- log2FC [27]: -0.687
- log2FC [28]: 1.08
- log2FC [29]: 1.12
- log2FC [30]: 0.74
- log2FC [31]: 0.414
- log2FC [32]: -0.561
